PubChem BioAssay AID1224829 – NIAID, 2016
Here is a random part of about 3,800 reagents tested. 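Calls cover raised and lowered translocation; gene median uses one vendor's three siRNAs; qiagen siRNAs acted more weakly than ambion siRNAs.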 The numbers tell different reagents against one gene apart. Reagent sequences are not shown.

Test: 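Follow-up of TLR4-NF-kappaB regulators using six separate siRNAs for each gene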 (follow-up of hits)
Cell system: mouse RAW264.7 G9 macrophage reporter cells
Reagent: single siRNA against mouse genes, 100 nM
Duration: 2 days of siRNA knock-down, then 40 min of LPS before fixing
Conditions: LPS (Salmonella minnesota R595) at 10 ng/ml
Detection: 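High-content images after 40 min LPS exposure; GFP-p65 nucleus to surrounding ring signal ratio, normalised to plate median and non-targeting control wells, expressed as z-score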
Direction: p65 translocation z-score and gene median z-score, per vendor: higher = more nuclear NF-kappaB p65 after LPS
Hit rule: 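An siRNA is called active when the mean z-score of its two replicates is above 2 or below -2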
Calls: active = changed p65 translocation (either direction); inactive = no clear change

The opening 4 entries, ahead of the listing:
| gene symbol | reagent | siRNA vendor or control pool | p65 translocation z-score, replicate mean | p65 translocation z-score, replicate 1 | p65 translocation z-score, replicate 2 | gene median z-score, per vendor | activity call |
| --- | --- | --- | --- | --- | --- | --- | --- |
| Xrcc5 (X-ray repair complementing 5) | 1 | ambion single siRNA | 2.46 | 3.39 | 1.52 | 0.987 | active |
| Xrcc5 (X-ray repair complementing 5) | 2 | ambion single siRNA | -8.25 | -8.68 | -7.83 | 0.987 | active |
| Xrcc5 (X-ray repair complementing 5) | 3 | ambion single siRNA | 1.01 | 1.57 | 0.454 | 0.987 | inactive |
| Xrcc5 (X-ray repair complementing 5) | 4 | qiagen single siRNA | 0.549 | 0.151 | 0.946 | -0.511 | inactive |

The list itself, from the first entry:
| gene symbol | reagent | siRNA vendor or control pool | p65 translocation z-score, replicate mean | p65 translocation z-score, replicate 1 | p65 translocation z-score, replicate 2 | gene median z-score, per vendor | activity call |
| --- | --- | --- | --- | --- | --- | --- | --- |
| Xrcc5 (X-ray repair complementing 5) | 1 | ambion single siRNA | 2.46 | 3.39 | 1.52 | 0.987 | active |
| Xrcc5 (X-ray repair complementing 5) | 2 | ambion single siRNA | -8.25 | -8.68 | -7.83 | 0.987 | active |
| Xrcc5 (X-ray repair complementing 5) | 3 | ambion single siRNA | 1.01 | 1.57 | 0.454 | 0.987 | inactive |
| Xrcc5 (X-ray repair complementing 5) | 4 | qiagen single siRNA | 0.549 | 0.151 | 0.946 | -0.511 | inactive |
| Xrcc5 (X-ray repair complementing 5) | 5 | qiagen single siRNA | -1.3 | -0.168 | -2.43 | -0.511 | inactive |
| Xrcc5 (X-ray repair complementing 5) | 6 | qiagen single siRNA | -1.05 | -0.855 | -1.25 | -0.511 | inactive |
| Pmaip1 (phorbol-12-myristate-13-acetate-induced protein 1) | 1 | ambion single siRNA | 3.54 | 3.94 | 3.14 | -0.152 | active |
| Pmaip1 (phorbol-12-myristate-13-acetate-induced protein 1) | 2 | ambion single siRNA | -0.152 | 0.661 | -0.965 | -0.152 | inactive |
| Pmaip1 (phorbol-12-myristate-13-acetate-induced protein 1) | 3 | ambion single siRNA | -3.19 | -3.19 | -3.18 | -0.152 | active |
| Pmaip1 (phorbol-12-myristate-13-acetate-induced protein 1) | 4 | qiagen single siRNA | 0.468 | 1.33 | -0.392 | 1.08 | inactive |
| Pmaip1 (phorbol-12-myristate-13-acetate-induced protein 1) | 5 | qiagen single siRNA | 1.28 | 1.38 | 1.18 | 1.08 | inactive |
| Pmaip1 (phorbol-12-myristate-13-acetate-induced protein 1) | 6 | qiagen single siRNA | 0.343 | -0.286 | 0.973 | 1.08 | inactive |
| Ear2 (eosinophil-associated, ribonuclease A family, member 2) | 1 | qiagen single siRNA | 3.87 | 4.74 | 3 | -0.995 | active |
| Ear2 (eosinophil-associated, ribonuclease A family, member 2) | 2 | qiagen single siRNA | -0.995 | -2.12 | 0.135 | -0.995 | inactive |
| Ear2 (eosinophil-associated, ribonuclease A family, member 2) | 3 | qiagen single siRNA | -5.17 | -5.49 | -4.85 | -0.995 | active |
| Cd209c (CD209c antigen) | 1 | ambion single siRNA | 0.183 | 0.582 | -0.216 | -1.02 | inactive |
| Cd209c (CD209c antigen) | 2 | ambion single siRNA | -3.63 | -3.15 | -4.11 | -1.02 | active |
| Cd209c (CD209c antigen) | 3 | ambion single siRNA | -0.238 | 1.34 | -1.81 | -1.02 | inactive |
| Cd209c (CD209c antigen) | 4 | qiagen single siRNA | -0.638 | 0.154 | -1.43 | -0.435 | inactive |
| Cd209c (CD209c antigen) | 5 | qiagen single siRNA | -0.0168 | -0.265 | 0.232 | -0.435 | inactive |
| Cd209c (CD209c antigen) | 6 | qiagen single siRNA | -0.811 | -1.02 | -0.606 | -0.435 | inactive |
| Actr3 (ARP3 actin-related protein 3) | 1 | ambion single siRNA | -1.63 | -2.41 | -0.845 | -2.2 | inactive |
| Actr3 (ARP3 actin-related protein 3) | 2 | ambion single siRNA | -4.4 | -5.22 | -3.59 | -2.2 | active |
| Actr3 (ARP3 actin-related protein 3) | 3 | ambion single siRNA | -1.54 | -1.09 | -1.99 | -2.2 | inactive |
| Actr3 (ARP3 actin-related protein 3) | 4 | qiagen single siRNA | 1.56 | 1.16 | 1.97 | 0.966 | inactive |
| Actr3 (ARP3 actin-related protein 3) | 5 | qiagen single siRNA | 0.966 | 0.866 | 1.07 | 0.966 | inactive |
| Actr3 (ARP3 actin-related protein 3) | 6 | qiagen single siRNA | -1.95 | -1.98 | -1.91 | 0.966 | inactive |
| Ptpn3 (protein tyrosine phosphatase, non-receptor type 3) | 1 | qiagen single siRNA | 1.21 | 1.63 | 0.79 | -1.26 | inactive |
| Ptpn3 (protein tyrosine phosphatase, non-receptor type 3) | 2 | qiagen single siRNA | -1.26 | -1.61 | -0.912 | -1.26 | inactive |
| Ptpn3 (protein tyrosine phosphatase, non-receptor type 3) | 3 | qiagen single siRNA | -3.47 | -1.75 | -5.2 | -1.26 | active |
| Tec (tec protein tyrosine kinase) | 1 | ambion single siRNA | -5.71 | -5.71 | -5.72 | -4.47 | active |
| Tec (tec protein tyrosine kinase) | 2 | ambion single siRNA | -1.91 | -0.199 | -3.61 | -4.47 | inactive |
| Tec (tec protein tyrosine kinase) | 3 | ambion single siRNA | -3.91 | -2.5 | -5.33 | -4.47 | active |
| Tec (tec protein tyrosine kinase) | 4 | qiagen single siRNA | -0.225 | -0.352 | -0.0986 | 0.00739 | inactive |
| Tec (tec protein tyrosine kinase) | 5 | qiagen single siRNA | 1.12 | 0.113 | 2.14 | 0.00739 | inactive |
| Tec (tec protein tyrosine kinase) | 6 | qiagen single siRNA | -0.0677 | 1.09 | -1.23 | 0.00739 | inactive |
| Mrps5 (mitochondrial ribosomal protein S5) | 1 | ambion single siRNA | -0.962 | -0.962 | – | -0.962 | inactive |
| Mrps5 (mitochondrial ribosomal protein S5) | 2 | ambion single siRNA | -0.0342 | 0.737 | -0.805 | -0.962 | inactive |
| Mrps5 (mitochondrial ribosomal protein S5) | 3 | ambion single siRNA | -1.79 | -1.49 | -2.1 | -0.962 | inactive |
| Mrps5 (mitochondrial ribosomal protein S5) | 4 | qiagen single siRNA | 4.42 | 2.04 | 6.79 | 0.0789 | active |
| Mrps5 (mitochondrial ribosomal protein S5) | 5 | qiagen single siRNA | 0.00717 | 1.55 | -1.54 | 0.0789 | inactive |
| Mrps5 (mitochondrial ribosomal protein S5) | 6 | qiagen single siRNA | -1.43 | -1.47 | -1.39 | 0.0789 | inactive |
| Reps2 (RALBP1 associated Eps domain containing protein 2) | 1 | ambion single siRNA | 1.6 | 2.4 | 0.793 | -1.89 | inactive |
| Reps2 (RALBP1 associated Eps domain containing protein 2) | 2 | ambion single siRNA | -1.89 | -2.56 | -1.23 | -1.89 | inactive |
| Reps2 (RALBP1 associated Eps domain containing protein 2) | 3 | ambion single siRNA | -3.51 | -2.84 | -4.18 | -1.89 | active |
| Reps2 (RALBP1 associated Eps domain containing protein 2) | 4 | qiagen single siRNA | 3.71 | 3.21 | 4.2 | 0.837 | active |
| Reps2 (RALBP1 associated Eps domain containing protein 2) | 5 | qiagen single siRNA | 0.837 | 0.171 | 1.5 | 0.837 | inactive |
| Reps2 (RALBP1 associated Eps domain containing protein 2) | 6 | qiagen single siRNA | -2.7 | -0.497 | -4.91 | 0.837 | active |
| Atg4d (autophagy related 4D, cysteine peptidase) | 1 | ambion single siRNA | -1.21 | -1.12 | -1.3 | -1.32 | inactive |
| Atg4d (autophagy related 4D, cysteine peptidase) | 2 | ambion single siRNA | -1.4 | -0.68 | -2.13 | -1.32 | inactive |
| Atg4d (autophagy related 4D, cysteine peptidase) | 3 | ambion single siRNA | -1.41 | -1.5 | -1.33 | -1.32 | inactive |
| Atg4d (autophagy related 4D, cysteine peptidase) | 4 | qiagen single siRNA | 0.739 | 0.49 | 0.988 | 0.739 | inactive |
| Atg4d (autophagy related 4D, cysteine peptidase) | 5 | qiagen single siRNA | 5.31 | 4.25 | 6.37 | 0.739 | active |
| Atg4d (autophagy related 4D, cysteine peptidase) | 6 | qiagen single siRNA | -1.57 | -1.96 | -1.18 | 0.739 | inactive |
